PubChem BioAssay AID1224827 – NIAID – 2016
This is a random part of about 3,800 reagents tested. Of all reagents, about 2,200 (57%) are marked active. 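Active means a strong reporter change in either direction; calls are per siRNA, not per gene; qiagen siRNAs gave weaker effects.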 Unmarked entries are inactive. The numbers tell different reagents against one gene apart. Not all columns of the deposit are shown.

Purpose: 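Identify regulators of the macrophage TNF-alpha response to bacterial LPS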 (follow-up of hits)
System: RAW264.7 G9 mouse macrophage reporter clone
Knock-down reagent: single siRNA against mouse genes, 100 nM siRNA
Duration: siRNA for 2 days, then LPS about 16 h
Treatment: bacterial lipopolysaccharide (LPS), 10 ng/ml, cells fixed after overnight (about 16 h) stimulation
Measurement: 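TNF promoter reporter red fluorescence in nuclei, background subtracted, normalised per plate and to non-targeting control siRNA, as z-scores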
Scale: TNF reporter z-score, mean and TNF reporter z-score: higher = stronger Tnf promoter reporter signal; gene median z, three same-vendor siRNAs: higher = stronger Tnf reporter signal for the gene
Active means: 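Active siRNA: replicate-mean z-score of 2 or more, or -2 or less; no calls for control wells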

| target gene | reagent no. | TNF reporter z-score, mean | gene median z, three same-vendor siRNAs | TNF reporter z-score, repeat 1 |
| --- | --- | --- | --- | --- |
| Grhl1 | 1 | -3.86 (active) | -4.63 | -4.55 |
| Grhl1 | 2 | -3.92 (active) | -4.63 | -4.7 |
| Grhl1 | 3 | -5.95 (active) | -4.63 | -5.79 |
| Grhl1 | 4 | 0.141 | -1.3 | 1.96 |
| Grhl1 | 5 | -0.603 | -1.3 | -0.281 |
| Grhl1 | 6 | -3.36 (active) | -1.3 | -4.1 |
| Nat2 | 1 | 5.35 (active) | -3.52 | 3.5 |
| Nat2 | 2 | -3.52 (active) | -3.52 | -4.05 |
| Nat2 | 3 | -5.18 (active) | -3.52 | -6.06 |
| Nat2 | 4 | 2.16 (active) | 0.962 | 3.38 |
| Nat2 | 5 | 1.29 | 0.962 | 2.57 |
| Nat2 | 6 | 0.0762 | 0.962 | 0.988 |

Hits, of those listed so far:
| target gene | reagent no. | TNF reporter z-score, mean | gene median z, three same-vendor siRNAs | TNF reporter z-score, repeat 1 |
| --- | --- | --- | --- | --- |
| Grhl1 | 1 | -3.86 (active) | -4.63 | -4.55 |
| Grhl1 | 2 | -3.92 (active) | -4.63 | -4.7 |
| Grhl1 | 3 | -5.95 (active) | -4.63 | -5.79 |
| Grhl1 | 6 | -3.36 (active) | -1.3 | -4.1 |
| Nat2 | 1 | 5.35 (active) | -3.52 | 3.5 |
| Nat2 | 2 | -3.52 (active) | -3.52 | -4.05 |
| Nat2 | 3 | -5.18 (active) | -3.52 | -6.06 |
| Nat2 | 4 | 2.16 (active) | 0.962 | 3.38 |

More entries follow.
| target gene | reagent no. | TNF reporter z-score, mean | gene median z, three same-vendor siRNAs | TNF reporter z-score, repeat 1 |
| --- | --- | --- | --- | --- |
| Hhat | 1 | 3.28 (active) | -1.29 | 3.88 |
| Hhat | 2 | -1.29 | -1.29 | -1.27 |
| Hhat | 3 | -3.98 (active) | -1.29 | -4.1 |
| Hhat | 4 | 2.69 (active) | -0.157 | 4.13 |
| Hhat | 5 | 0.929 | -0.157 | 3.42 |
| Hhat | 6 | -4.26 (active) | -0.157 | -3.4 |
| Actg1 | 1 | -2.22 (active) | -3.55 | -1.64 |
| Actg1 | 2 | -3.55 (active) | -3.55 | -3.75 |
| Actg1 | 3 | -6.03 (active) | -3.55 | -6.39 |
| Actg1 | 4 | 1.44 | -0.592 | 2.99 |
| Actg1 | 5 | 0.145 | -0.592 | 1.36 |
| Actg1 | 6 | -2.93 (active) | -0.592 | -3.05 |
